Measured values taken from patent US20110207628A1 (UNIVERSITY OF MIAMI, published 2011).

Legend:
[1] = molecular target: T1, FLAG-tubby-F (full-length mouse tubby with N-terminal FLAG tag) (mouse, UniProt P50586 1-505); assay: clonal phage on immobilized FLAG-tubby-F, plaque assay
T1 construct: mature; also called FLAG-tagged tubby; tubby-vesicles
T1 sequence: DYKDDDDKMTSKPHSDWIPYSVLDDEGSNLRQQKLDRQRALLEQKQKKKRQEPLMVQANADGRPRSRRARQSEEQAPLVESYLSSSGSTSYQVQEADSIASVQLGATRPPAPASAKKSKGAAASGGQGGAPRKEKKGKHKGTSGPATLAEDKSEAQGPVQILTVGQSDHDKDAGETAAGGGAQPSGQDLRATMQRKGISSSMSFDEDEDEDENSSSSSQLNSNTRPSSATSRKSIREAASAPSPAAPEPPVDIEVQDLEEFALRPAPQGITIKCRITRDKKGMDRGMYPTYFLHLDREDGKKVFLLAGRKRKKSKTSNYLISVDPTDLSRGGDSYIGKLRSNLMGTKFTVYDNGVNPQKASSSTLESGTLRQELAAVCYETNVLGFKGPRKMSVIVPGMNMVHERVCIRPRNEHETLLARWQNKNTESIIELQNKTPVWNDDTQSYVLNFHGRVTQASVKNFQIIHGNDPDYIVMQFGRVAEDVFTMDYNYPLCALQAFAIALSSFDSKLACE

[2] = molecular target: T2, tubby-N (N-terminus of mouse tubby, 1M-242P), GST-free (mouse, UniProt P50586 1-242); assay: clonal phage on immobilized tubby-N, plaque assay
T2 construct: range 1-242; Expressed as GST-tubby-N in E. coli BL21(DE3), GST removed by 3C protease cleavage; also called GST-free tubby-N
T2 sequence (looked up): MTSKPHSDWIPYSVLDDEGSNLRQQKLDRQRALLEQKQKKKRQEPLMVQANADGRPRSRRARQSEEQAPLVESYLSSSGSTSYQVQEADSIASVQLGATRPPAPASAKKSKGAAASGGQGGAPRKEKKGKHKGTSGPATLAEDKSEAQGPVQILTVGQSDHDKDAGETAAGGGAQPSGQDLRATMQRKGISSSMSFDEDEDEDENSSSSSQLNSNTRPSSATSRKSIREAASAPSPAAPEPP

B1: High mobility group nucleosomal binding domain 1 (Hmgn1) 1M-49K, phage clone (other, mouse, UniProt P18608 1-49, looked up)
chain: MPKRKVSADGAAKAEPKRRSARLSAKPAPAKVDAKPKKAAGKDKASDKK
notes: range 1-49; Minimal overlap of 2 independent clones; For Y2H recloned into pGAD424
- Binding to tubby-F (binding specificity to FLAG-tubby-F vs. to GFP-FLAG) [1]: ~9.5 X (fold)
- Binding to tubby-N (binding specificity of clonal phage vs. control phage) [2]: ~61.4 X (fold)
